Results are given in words; binding and its absence hold for the method and conditions named. For some assays here: Binding seen in cells or lysates may run through a third protein. Some binding calls cover weakened binding; strength is not graded here. Each block holds one substance with its values, some of them ahead of it.
Columns and labels:
[1] = molecular target: GST-AFDN C-terminal extension of the FHA domain (531-580) (mouse) (UniProt Q9QZQ1); experiment: pull-down; in vitro mixing: purified SCRIB PDZ1 added at 50 μM to glutathione beads bound to GST-fused AFDN FHA fragments; both purified
[2] = molecular target: GST-AFDN core FHA domain (371-531) (mouse) (UniProt Q9QZQ1); experiment: as above
[3] = molecular target: GST-AFDN core FHA domain as solved in the NMR structure (381-501) (mouse) (UniProt Q9QZQ1); experiment: as above
GST-SCRIB PDZ1 (human) = GST-SCRIB PDZ1 (human) (UniProt Q14160); experiment: pull-down; GST fusions purified from E. coli on glutathione beads mixed with lysates of mammalian cells expressing (or holding endogenous) SCRIB or AFDN; TX100 buffer with 10% glycerol and 1% NP-40; only the target purified
[4] = molecular target: GST-AFDN RA1/2 (dual RA domains, residues 6-370) (mouse) (UniProt Q9QZQ1); experiment: pull-down; GST-tagged RA/RBD domains purified from bacteria on glutathione beads mixed with lysates of cells expressing GTPases; beads washed 5X; anti-GFP blot; only the target purified

By UniProt entry, the sequences of proteins in these tests, tags left out. Where a name states a change or a piece, a line headed by the entry shows the natural chain unless it says otherwise. Residues count along the entry.
UniProt Q9QZQ1: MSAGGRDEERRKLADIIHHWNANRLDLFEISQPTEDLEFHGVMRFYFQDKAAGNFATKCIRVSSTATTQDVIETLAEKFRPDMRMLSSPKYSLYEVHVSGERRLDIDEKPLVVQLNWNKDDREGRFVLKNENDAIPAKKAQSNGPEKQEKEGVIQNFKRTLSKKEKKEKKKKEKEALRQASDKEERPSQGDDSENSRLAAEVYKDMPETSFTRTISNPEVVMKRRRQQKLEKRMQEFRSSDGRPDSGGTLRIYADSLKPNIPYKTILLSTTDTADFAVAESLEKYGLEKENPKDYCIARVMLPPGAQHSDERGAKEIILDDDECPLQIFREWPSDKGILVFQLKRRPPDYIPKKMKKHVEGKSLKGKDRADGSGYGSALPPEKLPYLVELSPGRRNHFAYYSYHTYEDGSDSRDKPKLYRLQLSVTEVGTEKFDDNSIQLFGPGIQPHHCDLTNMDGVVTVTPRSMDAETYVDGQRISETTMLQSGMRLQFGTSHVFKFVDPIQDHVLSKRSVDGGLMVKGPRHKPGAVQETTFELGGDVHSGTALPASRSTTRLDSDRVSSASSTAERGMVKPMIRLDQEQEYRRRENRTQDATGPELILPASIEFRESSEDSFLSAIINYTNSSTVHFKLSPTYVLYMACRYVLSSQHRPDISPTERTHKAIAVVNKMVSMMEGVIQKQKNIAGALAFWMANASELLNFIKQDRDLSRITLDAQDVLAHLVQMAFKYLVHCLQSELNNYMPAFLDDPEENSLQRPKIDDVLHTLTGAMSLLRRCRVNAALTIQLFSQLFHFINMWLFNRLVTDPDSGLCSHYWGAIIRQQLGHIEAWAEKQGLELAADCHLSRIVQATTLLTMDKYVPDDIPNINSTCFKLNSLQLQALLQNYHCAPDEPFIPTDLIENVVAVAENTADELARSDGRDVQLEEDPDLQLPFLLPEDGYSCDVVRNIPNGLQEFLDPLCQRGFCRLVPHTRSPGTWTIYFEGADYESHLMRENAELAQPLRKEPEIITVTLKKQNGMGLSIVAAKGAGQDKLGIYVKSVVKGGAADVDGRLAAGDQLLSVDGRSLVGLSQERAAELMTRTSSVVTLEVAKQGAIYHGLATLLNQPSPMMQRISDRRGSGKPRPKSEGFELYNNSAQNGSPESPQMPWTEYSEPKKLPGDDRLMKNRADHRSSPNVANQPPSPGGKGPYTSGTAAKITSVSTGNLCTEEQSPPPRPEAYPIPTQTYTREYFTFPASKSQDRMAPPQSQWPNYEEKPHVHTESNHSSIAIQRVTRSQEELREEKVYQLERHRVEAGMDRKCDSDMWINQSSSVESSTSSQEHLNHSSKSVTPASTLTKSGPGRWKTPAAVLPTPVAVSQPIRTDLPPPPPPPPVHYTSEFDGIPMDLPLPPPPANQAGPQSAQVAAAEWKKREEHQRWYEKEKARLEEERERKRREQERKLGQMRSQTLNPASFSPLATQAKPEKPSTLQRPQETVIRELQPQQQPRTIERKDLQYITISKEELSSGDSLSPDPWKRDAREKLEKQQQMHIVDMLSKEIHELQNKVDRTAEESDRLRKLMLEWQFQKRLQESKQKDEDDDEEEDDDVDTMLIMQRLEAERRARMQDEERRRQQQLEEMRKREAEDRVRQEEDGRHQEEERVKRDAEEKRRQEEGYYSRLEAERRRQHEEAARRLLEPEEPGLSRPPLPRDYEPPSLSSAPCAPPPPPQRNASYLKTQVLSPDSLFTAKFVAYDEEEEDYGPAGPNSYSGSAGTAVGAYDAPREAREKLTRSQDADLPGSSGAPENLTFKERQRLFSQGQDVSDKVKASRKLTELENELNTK
GST-AFDN RA1/2 (dual RA domains, residues 6-370): residues 6-370 of Q9QZQ1
GST-AFDN core FHA domain (371-531): residues 371-531 of Q9QZQ1
GST-AFDN core FHA domain as solved in the NMR structure (381-501): residues 381-501 of Q9QZQ1
GST-AFDN C-terminal extension of the FHA domain (531-580): residues 531-580 of Q9QZQ1
UniProt Q14160, residues 718-820: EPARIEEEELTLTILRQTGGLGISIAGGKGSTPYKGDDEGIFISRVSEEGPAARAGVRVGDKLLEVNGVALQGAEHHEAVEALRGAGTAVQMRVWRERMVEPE
UniProt P61224: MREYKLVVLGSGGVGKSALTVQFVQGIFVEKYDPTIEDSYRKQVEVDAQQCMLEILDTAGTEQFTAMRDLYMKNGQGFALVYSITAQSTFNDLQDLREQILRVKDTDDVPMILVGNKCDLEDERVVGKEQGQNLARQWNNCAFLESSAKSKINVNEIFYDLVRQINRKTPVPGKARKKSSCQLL

binding [1]: no binding (tested: 50 μM) | binding [2]: no binding (tested: 50 μM) | binding [3]: no binding (tested: 50 μM)
Substance: purified SCRIB PDZ1 domain (718-820) (from UniProt Q14160 718-820) (domain or fragment)

binding (GST-SCRIB PDZ1 (human)): binds
Substance: AFDN iso1, expressed in cells for GST mixing (tag not told) (from UniProt Q9QZQ1 1-1820)

binding [4]: binds
Substance: EGFP-RAP1B-G12V (from UniProt P61224 1-184)
